# Measured values from PubChem BioAssay AID1259415 (National Center for Advancing Translational Sciences (NCATS), 2018).
# “And” between values parts separate entries of the source, which are not always exact repeats. Equal entries are not always repeated. About 18,000 (4.4%) of roughly 410,000 compounds were called active. Inconclusive means that the source gave no clear call. Such entries were picked first, then a sample of the others. Cut-off read from the data, not from the text of the source: active = activity change below about -60%; inconclusive = no clear call, values can overlap the other calls; inactive = above about -39%.
# Experiment: qHTS Assay for inhibitors of the human cytomegalovirus (HCMV)
# Conditions: HFF cells, HCMV-luciferase reporter, 72 h; at 57.5 µM; hits give low values
# Method in brief: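 Human foreskin fibroblasts infected with luciferase-reporter HCMV at MOI 1 PFU/cell, compounds at two doses. Luciferase measured 72 h post infection; normalized to buffer-only basal and Salinomycin (10uM) controls.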
# % is set by controls: 0 for no effect and ±100 for the full control effect.
row,SMILES,"activity change, negative = inhibition"
1,CCOP(=O)(OCC)C(NC(=O)Cc1ccccc1)C(Cl)(Cl)Cl (centres undefined),inactive: -33.2%
2,Cc1nc(C(F)(F)F)ccc1C(=O)Nc1ccc2ccccc2n1,inactive: -18.2%
3,CCCn1c(SCC(=O)N2CCOCC2)nnc1-c1ccncc1,inconclusive: -40.5%
4,Cc1ccccc1CS(=O)(=O)c1ncc(Cl)c(C(=O)Nc2ccc(F)cc2)n1,active: -98.1%
5,COc1ccc(/C=N/Nc2cc(C)nc(NS(=O)(=O)c3ccc(C)cc3)n2)cc1,active: -62.2%
6,CCCc1nnc(NC(=O)c2cc3ccccc3o2)s1,inactive: 72.6%
7,Cc1cc(C)[n+]2n1C(=O)C(c1ccccc1)=C2[O-],inactive: 23.5% and inactive: -31.5%
8,N#CC1=C(N)N(c2ccccc2)C(c2cccc([N+](=O)[O-])c2)C1(C#N)C#N (centres undefined),inconclusive: -57.3%
9,CC(Sc1ccccc1)C(=O)N1CCN(S(=O)(=O)c2ccccc2)CC1 (centres undefined),active: -62.7%
10,Cc1ccc(S(=O)(=O)N(C)C)cc1NC(=O)C(C)OC(=O)C1CCCC1 (centres undefined),inconclusive: -50.6%
11,CCOc1ccc(-c2nnc(SCC(=O)NCc3ccc(C)cc3)nc2-c2ccc(OCC)cc2)cc1,inactive: 81.1%
12,COc1ccc(OC)c(C2c3c(oc4ccc(C)cc4c3=O)C(=O)N2CCCN(C)C)c1 (centres undefined),inconclusive: -50.3%
13,OCc1nc2ccccc2n1CCOc1ccccc1,inactive: 0.43%
14,C/C=C/c1ccc(OCC(O)CN2CCCCC2CC)c(OC)c1 (centres undefined),inactive: -38.1%
15,O=C(NNC(=O)c1ccccc1F)c1cccc(S(=O)(=O)N2CCc3ccccc32)c1,inconclusive: -57.8%
16,C=CCc1cccc(/C=N/NC(=O)c2ccccc2OC)c1O,active: -97.4%
17,CCc1ccccc1NS(=O)(=O)c1ccc2c(c1)OCC(C(=O)N1CCCC1)O2 (centres undefined),inactive: -20.2%
18,CCOCc1cc(CN2CCN(c3cccc(Cl)c3)CC2)c(O)c2ncccc12,active: -100%
19,Nc1ccc(CCc2nc3ccccc3o2)cc1,inactive: -25.2%
20,O=C1OCC2=C1C(c1ccc(F)cc1)c1cc3c(cc1N2)OCCO3 (centres undefined),active: -84.6%
21,C#CCNC(=O)C[C@@H]1C[C@@]2(C(=O)OC)CC(C)(C)CC=C2N(Cc2cccc3ccccc23)C1=O,inconclusive: -43.5%
22,COC(C[C@@H](O)CC(=O)COCc1ccccc1)OC,inactive: 4.3%
23,Oc1ccccc1C=NC(c1ccccc1)C(O)c1ccccc1 (centres undefined),inconclusive: -43.6%

row,SMILES,"activity change, negative = inhibition"
1,CC(C)NS(=O)(=O)c1ccc(OCC(=O)Nc2ccc3c(c2)OCCO3)cc1,active: -82.2%
2,COc1ccc(/C=N/NC(=O)c2c(C)nc3ccc(Cl)cn23)cc1OC,inactive: -8.46%
3,Cc1noc(C)c1S(=O)(=O)N1CCC(C(=O)NCCC2=CCCCC2)CC1,active: -102%
4,O=C(NCC(=O)N(c1cccnc1)C(C(=O)NC1CCCC1)c1cccs1)c1cccs1 (centres undefined),inconclusive: -47.8%
5,CCn1c(SCc2cccc(F)c2)nnc1-c1ccncc1,inconclusive: -45.9%
6,Oc1ccc(/C=N/N2CCN(c3ccccn3)CC2)cc1,inconclusive: -49.9%
7,Oc1csc(Cc2nc(-c3ccccc3F)cs2)n1,inconclusive: -57.3%
8,CCCc1cc(=O)oc2c3c(cc(OCC(=O)NCc4ccccn4)c12)OC(C)(C)CC3,inconclusive: -52.9%
9,Cc1ccc(C)c(S(=O)(=O)N2CCN(C(=O)CCCc3c[nH]c4ccccc34)CC2)c1,inconclusive: -42.5%
10,CC(=O)Oc1ccc(OC(C)=O)c(SCCCCCCl)c1,active: -72.4%
11,CC1(C)CC(=O)C=C(c2ccc(-c3cnc4ccccc4c3)cc2)C1=O,active: -71.3%
12,O=S1(=O)CCC(NC(=S)SCc2ccccc2Br)C1 (centres undefined),inconclusive: -49.3%
13,CC1C/C(=C/c2ccncc2)C(=O)/C(=C/c2ccncc2)C1 (centres undefined),active: -101%
14,CCOC(=O)N1CCC(NC(=O)c2ccc3c(c2)N(Cc2ccc(F)cc2)C(=O)c2ccccc2S3(=O)=O)CC1,inactive: 0.451%
15,CCOc1cc(C2c3c(-c4ccc(Br)cc4)n[nH]c3C(=O)N2c2ccc(Cl)cc2)ccc1O (centres undefined),active: -106%
16,COc1cc(OC)cc(C(=O)NCC(=O)OCC(=O)/C=C2/N(C)c3ccccc3C2(C)C)c1,inactive: -22.9%
17,CC(OC(=O)c1ccco1)C(=O)Nc1ccc(C(F)(F)F)cc1 (centres undefined),inactive: -2.9%
18,Cc1cc(C)c(NC(=O)COc2nc3ccccc3nc2C)c(C)c1,inconclusive: -56.7%
19,COc1ccc(C(O)c2nc(-c3ccc(OC)nc3)cs2)cc1 (centres undefined),inconclusive: -41.9%
20,Cc1nn(Cc2ccccc2)c(C)c1NC(=O)c1cccs1,inconclusive: -45.5%
21,Cc1ccc(O)c(N=Nc2ccccc2)n1,inconclusive: -40.3%
22,CCOC(=O)C1CCCN(Cc2cc(=O)oc3cc(C)c(C)cc23)C1 (centres undefined),inconclusive: -46.6%
23,O=C(CSc1nnc(Cc2ccccc2)o1)Nc1ccccc1,inconclusive: -51.8%

row,SMILES,"activity change, negative = inhibition"
1,O=C1Nc2ccc(Br)cc2C(c2ccccc2)=NC1O (centres undefined),inconclusive: -47.3%
2,O=C(Nc1nccs1)c1ccc(-c2cccc([N+](=O)[O-])c2)o1,inconclusive: -44.3%
3,COc1ccc(-c2nc(-c3cccc(C(F)(F)F)c3)no2)cc1OC,inactive: -25.4%
4,Cc1ccc(NS(=O)(=O)c2ccc(N3CCN(c4ccc(O)cc4)CC3)c([N+](=O)[O-])c2)c(C)c1,active: -63.9%
5,O=C(O)Cn1cc(/C=C2\C(=O)NC(=O)N(c3ccc(Cl)cc3)C2=O)c2ccccc21,inactive: 31.8%
6,Cc1cc(N2CCCCC2)nc2ccc(NC(=O)/C=C/c3ccccc3Cl)cc12,inconclusive: -45.5%
7,CC(C)c1ccc(-c2c(C#N)c(N)nc(SCC(=O)N3CCCCCC3)c2C#N)cc1,inactive: 43%
8,O=[N+]([O-])c1ccc(N2CCOCC2)cc1SCc1ccco1,inactive: -1.16%
9,CC(=O)Oc1ccc(/C=N/NC2=NS(=O)(=O)c3ccccc32)cc1,inactive: -10%
10,CN=c1scc(C)n1/N=C/c1cc(Br)c(O)c(Br)c1,inconclusive: -45.5%
11,COC(=O)c1ccccc1NC(=O)CCS(=O)(=O)c1ccc(Br)cc1,inconclusive: -45.8%
12,CCOc1ccc(S(=O)(=O)N(CC(=O)NCCSc2ccccc2)c2ccccc2)cc1,inconclusive: -56%
13,CCCCCc1nc2c(=O)n(C)c3ccccc3c2o1,inactive: -27%
14,O=C(O)c1nnn(-c2ccc(F)cc2F)c1-c1ccccc1,inconclusive: -46.6%
15,Cn1nc(C(F)(F)F)c(-c2cccc(C(F)(F)F)c2)c1NC(=O)c1cccnc1,active: -78.4%
16,Cc1ccc2nc(-c3ccc(NS(=O)(=O)c4ccc(F)cc4)cc3)sc2c1,active: -94.4%
17,COc1ccc(-c2ncncc2-c2ccccc2)c(O)c1,inconclusive: -50.8%
18,O=C(NC1CCCC1)c1cnn2c(C(F)(F)F)cc(-c3ccco3)nc12,inconclusive: -43.9%
19,COc1ccc(C(CC(=O)c2ccccc2)S(=O)(=O)c2ccccc2)cc1 (centres undefined),inconclusive: -55.9%
20,Cc1c(CCO)c(=O)n2c([nH]c3ccccc32)c1C#N,inactive: -5.4%
21,CCCCC(CC)COC(=O)c1ccccc1C(=O)OCC(CC)CCCC (centres undefined),inactive: 54.2%
22,O=C(NCC(=O)N1CCc2ccccc2C1)c1ccc(Cl)cc1Cl,inactive: 7.53%
23,COc1ccc(OC)c(NC(=O)c2ccc3c(c2)C(=O)N(CC2CCCO2)C3=O)c1 (centres undefined),active: -66.5%

row,SMILES,"activity change, negative = inhibition"
1,CCc1ccc(Nc2ncnc3c2cnn3-c2cc(Cl)ccc2C)cc1,inconclusive: -46.6%
2,ClCCn1cnc2c(SCc3ccccc3)ncnc21,active: -64.4%
3,CCOc1ccc(-c2cc(C)[n+](CCO)c(-c3ccc(OCC)cc3)c2)cc1,active: -76.9%
4,Nc1c(-c2nc(-c3cccs3)no2)nnn1-c1cccc(Cl)c1,inactive: 30.8%
5,CC[C@@]1(c2ccccc2OC)ON(c2ccccc2C(F)(F)F)C1=O,inconclusive: -57.7%
6,CNc1c(NS(=O)(=O)c2ccc(OC)cc2)c(=O)oc2ccccc12,inactive: -28.3%
7,CC(C)CC(NC(N)=O)C(=O)NCc1ccccc1Cl (centres undefined),inconclusive: -43.6%
8,O=C(CN1C(=O)NC2(CCCC2)C1=O)Nc1nc(-c2ccc(F)c(F)c2)cs1,inactive: 1.11%
9,CCn1c(=O)c2cc(C(=O)N(CCN(C)C)Cc3ccccc3)sc2c2ccccc21,inconclusive: -54.8%
10,N#CCC(=O)N/N=C/c1ccc(Sc2nc3ccccc3s2)o1,active: -99.1%
11,CCS(=O)(=O)N1CCN(c2ncnc3sc(C)c(C)c23)CC1,inconclusive: -45.7%
12,Cc1ncc(CN2CCC(C(=O)Nc3cccc(-c4cscn4)c3)CC2)cn1,inconclusive: -40.8%
13,Cc1ccc(C)c(Cn2c3ccccc3c3cnn(CC(=O)NCCC4=CCCCC4)c(=O)c32)c1,inactive: 13.8%
14,COc1ccc(Cl)cc1NC(=O)c1sc(-n2nc(C)c(Cc3ccccc3)c2C)nc1C,inactive: -37%
15,COc1ccc(-c2nnn(-c3ccc(Cl)cc3Cl)c2N)cc1,inconclusive: -40.6%
16,Cc1ccc(C(=O)NCCc2ccc(Cl)cc2)cc1-n1c(C)nc2cccnc21,inconclusive: 0%
17,O=S(=O)(Nc1ccccc1Br)c1cccc2cccnc12,inconclusive: -46.2%
18,Cc1nn(CC(=O)Nc2cccnc2)c(C)c1[N+](=O)[O-],inconclusive: -49.2%
19,Fc1ccc2nc(Nc3nc4c(F)cc(F)cc4s3)sc2c1,inconclusive: -53.9%
20,COc1ccc(-c2ocnc2C(=O)N2CCN(C(c3ccccc3)c3ccccc3)CC2)cc1,inactive: 7.94%

# 4 compounds from above, sorted by count of non-hydrogen atoms, ascending:
row,SMILES,"activity change, negative = inhibition"
7,CC(C)CC(NC(N)=O)C(=O)NCc1ccccc1Cl (centres undefined),inconclusive: -43.6%
17,O=S(=O)(Nc1ccccc1Br)c1cccc2cccnc12,inconclusive: -46.2%
10,N#CCC(=O)N/N=C/c1ccc(Sc2nc3ccccc3s2)o1,active: -99.1%
3,CCOc1ccc(-c2cc(C)[n+](CCO)c(-c3ccc(OCC)cc3)c2)cc1,active: -76.9%
